Measured values published in patent publication US10775388B2, “Methods of using antibodies to determine periostin levels in a sample” (MEDIMMUNE, LLC, priority 2014, dated 2020).

B1: Isoform 7: human periostin isoform 7 (SEQ ID NO:16), expressed in HEK-293-6E cells (protein, listed as Homo sapiens)
chain: ARRTMIPFLPMFSLLLLLIVNPINANNHYDKILAHSRIRGRDQGPNVCALQQILGTKKKYFSTCKNWYKKSICGQKTTVLYECCPGYMETRMETEGMETKGCPAVLPIDHVYGTLGIVGATTTQRYSDASKLREEIEGKGSFTYFAPSNEAWDNLDSDIRRGLESNVNVELLNALHSHMINKRMETLTKDLKNGMETIIPSMETYNNLGLFINHYPNGVVTVNCARIIHGNQIATNGVVHVIDRVLTQIGTSIQDFIEAEDDLSSFRAAAITSDILEALGRDGHFTLFAPTNEAFEKLPRGVLERIMETGDKVASEALMETKYHILNTLQCSESIMETGGAVFETLEGNTIEIGCDGDSITVNGIKMETVNKKDIVTNNGVIHLIDQVLIPDSAKQVIELAGKQQTTFTDLVAQLGLASALRPDGEYTLLAPVNNAFSDDTLSMDQRLLKLILQNHILKVKVGLNELYNGQILETIGGKQLRVFVYRTAVCIENSCMETEKGSKQGRNGAIHIFREIIKPAEKSLHEKLKQDKRFSTFLSLLEAADLKELLTQPGDWTLFVPTNDAFKGMTSEEKEILIRDKNALQNIILYHLTPGVFIGKGFEPGVTNILKTTQGSKIFLKEVNDTLLVNELKSKESDIMTTNGVIHVVDKLLYPADTPVGNDQLLEILNKLIKYIQIKFVRGSTFKEIPVTVYGPEIKYTRISTGGGETEETLKKLLQEEVTKVTKFIEGGDGHLFEDEEIKRLLQGDTPVRKLQANKKVQGSRRRLREGRSQGSGSGHHHHHHHH
B2: Isoform 3: human periostin isoform 3 (SEQ ID NO:3), expressed in HEK-293-6E cells (protein, listed as Homo sapiens)
chain: MIPFLPMFSLLLLLIVNPINANNHYDKILAHSRIRGRDQGPNVCALQQILGTKKKYFSTCKNWYKKSICGQKTTVLYECCPGYMRMEGMKGCPAVLPIDHVYGTLGIVGATTTQRYSDASKLREEIEGKGSFTYFAPSNEAWDNLDSDIRRGLESNVNVELLNALHSHMINKRMLTKDLKNGMIIPSMYNNLGLFINHYPNGVVTVNCARIIHGNQIATNGVVHVIDRVLTQIGTSIQDFIEAEDDLSSFRAAAITSDILEALGRDGHFTLFAPTNEAFEKLPRGVLERIMGDKVASEALMKYHILNTLQCSESIMGGAVFETLEGNTIEIGCDGDSITVNGIKMVNKKDIVTNNGVIHLIDQVLIPDSAKQVIELAGKQQTTFTDLVAQLGLASALRPDGEYTLLAPVNNAFSDDTLSMDQRLLKLILQNHILKVKVGLNELYNGQILETIGGKQLRVFVYRTAVCIENSCMEKGSKQGRNGAIHIFREIIKPAEKSLHEKLKQDKRFSTFLSLLEAADLKELLTQPGDWTLFVPTNDAFKGMTSEEKEILIRDKNALQNIILYHLTPGVFIGKGFEPGVTNILKTTQGSKIFLKEVNDTLLVNELKSKESDIMTTNGVIHVVDKLLYPADTPVGNDQLLEILNKLIKYIQIKFVRGSTFKEIPVTVYRPTLTKVKIEGEPEFRLIKEGETITEVIHGEPIIKKYTKIIDGVPVEITEKETREERIITGPEIKYTRISTGGGETEETLKKLLQEDTPVRKLQANKKVQGSRRRLREGRSQ
B3: Isoform 2: human periostin isoform 2 (SEQ ID NO:2), expressed in HEK-293-6E cells (protein, listed as Homo sapiens)
chain: MIPFLPMFSLLLLLIVNPINANNHYDKILAHSRIRGRDQGPNVCALQQILGTKKKYFSTCKNWYKKSICGQKTTVLYECCPGYMRMEGMKGCPAVLPIDHVYGTLGIVGATTTQRYSDASKLREEIEGKGSFTYFAPSNEAWDNLDSDIRRGLESNVNVELLNALHSHMINKRMLTKDLKNGMIIPSMYNNLGLFINHYPNGVVTVNCARIIHGNQIATNGVVHVIDRVLTQIGTSIQDFIEAEDDLSSFRAAAITSDILEALGRDGHFTLFAPTNEAFEKLPRGVLERIMGDKVASEALMKYHILNTLQCSESIMGGAVFETLEGNTIEIGCDGDSITVNGIKMVNKKDIVTNNGVIHLIDQVLIPDSAKQVIELAGKQQTTFTDLVAQLGLASALRPDGEYTLLAPVNNAFSDDTLSMDQRLLKLILQNHILKVKVGLNELYNGQILETIGGKQLRVFVYRTAVCIENSCMEKGSKQGRNGAIHIFREIIKPAEKSLHEKLKQDKRFSTFLSLLEAADLKELLTQPGDWTLFVPTNDAFKGMTSEEKEILIRDKNALQNIILYHLTPGVFIGKGFEPGVTNILKTTQGSKIFLKEVNDTLLVNELKSKESDIMTTNGVIHVVDKLLYPADTPVGNDQLLEILNKLIKYIQIKFVRGSTFKEIPVTVYKPIIKKYTKIIDGVPVEITEKETREERIITGPEIKYTRISTGGGETEETLKKLLQEEVTKVTKFIEGGDGHLFEDEEIKRLLQGDTPVRKLQANKKVQGSRRRLREGRSQ
B4: Isoform 8: human periostin isoform 8 (SEQ ID NO:17), expressed in HEK-293-6E cells (protein, listed as Homo sapiens)
chain: ARRTMIPFLPMFSLLLLLIVNPINANNHYDKILAHSRIRGRDQGPNVCALQQILGTKKKYFSTCKNWYKKSICGQKTTVLYECCPGYMRMEGMKGCPAVLPIDHVYGTLGIVGATTTQRYSDASKLREEIEGKGSFTYFAPSNEAWDNLDSDIRRGLESNVNVELLNALHSHMINKRMLTKDLKNGMIIPSMYNNLGLFINHYPNGVVTVNCARIIHGNQIATNGVVHVIDRVLTQIGTSIQDFIEAEDDLSSFRAAAITSDILEALGRDGHFTLFAPTNEAFEKLPRGVLERIMGDKVASEALMKYHILNTLQCSESIMGGAVFETLEGNTIEIGCDGDSITVNGIKMVNKKDIVTNNGVIHLIDQVLIPDSAKQVIELAGKQQTTFTDLVAQLGLASALRPDGEYTLLAPVNNAFSDDTLSMDQRLLKLILQNHILKVKVGLNELYNGQILETIGGKQLRVFVYRTAVCIENSCMEKGSKQGRNGAIHIFREIIKPAEKSLHEKLKQDKRFSTFLSLLEAADLKELLTQPGDWTLFVPTNDAFKGMTSEEKEILIRDKNALQNIILYHLTPGVFIGKGFEPGVTNILKTTQGSKIFLKEVNDTLLVNELKSKESDIMTTNGVIHVVDKLLYPADTPVGNDQLLEILNKLIKYIQIKFVRGSTFKEIPVTVYGPEIKYTRISTGGGETEETLKKLLQEPVRKLQANKKVQGSRRRLREGRSQGSGSGHHHHHHHH
B5: Isoform 4: human periostin isoform 4 (SEQ ID NO:4), expressed in HEK-293-6E cells (protein, listed as Homo sapiens)
chain: MIPFLPMFSLLLLLIVNPINANNHYDKILAHSRIRGRDQGPNVCALQQILGTKKKYFSTCKNWYKKSICGQKTTVLYECCPGYMRMEGMKGCPAVLPIDHVYGTLGIVGATTTQRYSDASKLREEIEGKGSFTYFAPSNEAWDNLDSDIRRGLESNVNVELLNALHSHMINKRMLTKDLKNGMIIPSMYNNLGLFINHYPNGVVTVNCARIIHGNQIATNGVVHVIDRVLTQIGTSIQDFIEAEDDLSSFRAAAITSDILEALGRDGHFTLFAPTNEAFEKLPRGVLERIMGDKVASEALMKYHILNTLQCSESIMGGAVFETLEGNTIEIGCDGDSITVNGIKMVNKKDIVTNNGVIHLIDQVLIPDSAKQVIELAGKQQTTFTDLVAQLGLASALRPDGEYTLLAPVNNAFSDDTLSMDQRLLKLILQNHILKVKVGLNELYNGQILETIGGKQLRVFVYRTAVCIENSCMEKGSKQGRNGAIHIFREIIKPAEKSLHEKLKQDKRFSTFLSLLEAADLKELLTQPGDWTLFVPTNDAFKGMTSEEKEILIRDKNALQNIILYHLTPGVFIGKGFEPGVTNILKTTQGSKIFLKEVNDTLLVNELKSKESDIMTTNGVIHVVDKLLYPADTPVGNDQLLEILNKLIKYIQIKFVRGSTFKEIPVTVYKPIIKKYTKIIDGVPVEITEKETREERIITGPEIKYTRISTGGGETEETLKKLLQEDTPVRKLQANKKVQGSRRRLREGRSQ

What follows are molecules tested on periostin isoforms 2, 3, 4, 7, and 8 (assay: […] Periostin assay (4B4.B11 capture, 7B5.C4 detection) on media from periostin isoform transfections). Details: harvested media diluted 1:60 or 1:100.
Type: binding, human

Row | Molecule | AVG ng/mL (corrected for dilution) [ng/mL]
1 | B1 | 5337.53
2 | B2 | 7719.50
3 | B3 | 6655.5
4 | B4 | 3651.05
5 | B5 | 9720.50
